{"source": "PubChem BioAssay AID1224829 (NIAID, 2016)", "aim": "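Secondary check of hits that alter LPS-induced p65 translocation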 (follow-up of hits)", "system": "mouse RAW264.7 G9 macrophage reporter cells", "reagents": "single siRNA against mouse genes, 100 nM", "time to read-out": "2 days of siRNA knock-down, then 40 min of LPS before fixing", "treatment": "LPS (Salmonella minnesota R595) at 10 ng/ml", "measured": "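High-content images after 40 min LPS exposure; GFP-p65 nucleus to surrounding ring signal ratio, normalised to plate median and non-targeting control wells, expressed as z-score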", "direction": "p65 translocation z-score: higher = more nuclear NF-kappaB p65 after LPS", "hit rule": "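An siRNA is called active when the mean z-score of its two replicates is above 2 or below -2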", "calls": "active = changed p65 translocation (either direction); inactive = no clear change", "note": "This is an unselected part of about 3,800 reagents tested. 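Calls cover raised and lowered translocation; gene median uses one vendor's three siRNAs; qiagen siRNAs acted more weakly than ambion siRNAs.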 A number with no mark means an inactive call. The numbers tell different reagents against one gene apart. Not all columns of the deposit are shown."}
{"target gene":"Slc11a1","reagent":1,"siRNA vendor or control pool":"ambion single siRNA","p65 translocation z-score, replicate mean":-1.92}
{"target gene":"Slc11a1","reagent":2,"siRNA vendor or control pool":"ambion single siRNA","p65 translocation z-score, replicate mean":-1.91}
{"target gene":"Slc11a1","reagent":3,"siRNA vendor or control pool":"ambion single siRNA","p65 translocation z-score, replicate mean":"-3.29 (active)"}
{"target gene":"Slc11a1","reagent":4,"siRNA vendor or control pool":"qiagen single siRNA","p65 translocation z-score, replicate mean":"2.65 (active)"}
{"target gene":"Slc11a1","reagent":5,"siRNA vendor or control pool":"qiagen single siRNA","p65 translocation z-score, replicate mean":0.441}
{"target gene":"Slc11a1","reagent":6,"siRNA vendor or control pool":"qiagen single siRNA","p65 translocation z-score, replicate mean":-0.14}
{"target gene":"Nfe2 (nuclear factor, erythroid derived 2)","reagent":1,"siRNA vendor or control pool":"ambion single siRNA","p65 translocation z-score, replicate mean":0.509}
{"target gene":"Nfe2 (nuclear factor, erythroid derived 2)","reagent":2,"siRNA vendor or control pool":"ambion single siRNA","p65 translocation z-score, replicate mean":"-4.51 (active)"}
{"target gene":"Nfe2 (nuclear factor, erythroid derived 2)","reagent":3,"siRNA vendor or control pool":"ambion single siRNA","p65 translocation z-score, replicate mean":-0.741}
{"target gene":"Nfe2 (nuclear factor, erythroid derived 2)","reagent":4,"siRNA vendor or control pool":"qiagen single siRNA","p65 translocation z-score, replicate mean":"4.77 (active)"}
{"target gene":"Nfe2 (nuclear factor, erythroid derived 2)","reagent":5,"siRNA vendor or control pool":"qiagen single siRNA","p65 translocation z-score, replicate mean":0.0654}
{"target gene":"Nfe2 (nuclear factor, erythroid derived 2)","reagent":6,"siRNA vendor or control pool":"qiagen single siRNA","p65 translocation z-score, replicate mean":1.57}
{"target gene":"Thrsp (thyroid hormone responsive)","reagent":1,"siRNA vendor or control pool":"ambion single siRNA","p65 translocation z-score, replicate mean":"6.35 (active)"}
{"target gene":"Thrsp (thyroid hormone responsive)","reagent":2,"siRNA vendor or control pool":"ambion single siRNA","p65 translocation z-score, replicate mean":-0.285}
{"target gene":"Thrsp (thyroid hormone responsive)","reagent":3,"siRNA vendor or control pool":"ambion single siRNA","p65 translocation z-score, replicate mean":"-2.97 (active)"}
{"target gene":"Thrsp (thyroid hormone responsive)","reagent":4,"siRNA vendor or control pool":"qiagen single siRNA","p65 translocation z-score, replicate mean":"2.31 (active)"}
{"target gene":"Thrsp (thyroid hormone responsive)","reagent":5,"siRNA vendor or control pool":"qiagen single siRNA","p65 translocation z-score, replicate mean":1.02}
{"target gene":"Thrsp (thyroid hormone responsive)","reagent":6,"siRNA vendor or control pool":"qiagen single siRNA","p65 translocation z-score, replicate mean":-0.31}
{"target gene":"Cfb (complement factor B)","reagent":1,"siRNA vendor or control pool":"ambion single siRNA","p65 translocation z-score, replicate mean":0.926}
{"target gene":"Cfb (complement factor B)","reagent":2,"siRNA vendor or control pool":"ambion single siRNA","p65 translocation z-score, replicate mean":-0.194}
{"target gene":"Cfb (complement factor B)","reagent":3,"siRNA vendor or control pool":"ambion single siRNA","p65 translocation z-score, replicate mean":"-3.54 (active)"}
{"target gene":"Cfb (complement factor B)","reagent":4,"siRNA vendor or control pool":"qiagen single siRNA","p65 translocation z-score, replicate mean":-0.114}
{"target gene":"Cfb (complement factor B)","reagent":5,"siRNA vendor or control pool":"qiagen single siRNA","p65 translocation z-score, replicate mean":-0.23}
{"target gene":"Cfb (complement factor B)","reagent":6,"siRNA vendor or control pool":"qiagen single siRNA","p65 translocation z-score, replicate mean":"-2.38 (active)"}
{"target gene":"Mrps10 (mitochondrial ribosomal protein S10)","reagent":1,"siRNA vendor or control pool":"ambion single siRNA","p65 translocation z-score, replicate mean":0.45}
{"target gene":"Mrps10 (mitochondrial ribosomal protein S10)","reagent":2,"siRNA vendor or control pool":"ambion single siRNA","p65 translocation z-score, replicate mean":-0.914}
{"target gene":"Mrps10 (mitochondrial ribosomal protein S10)","reagent":3,"siRNA vendor or control pool":"ambion single siRNA","p65 translocation z-score, replicate mean":"-3.82 (active)"}
{"target gene":"Mrps10 (mitochondrial ribosomal protein S10)","reagent":4,"siRNA vendor or control pool":"qiagen single siRNA","p65 translocation z-score, replicate mean":1.94}
{"target gene":"Mrps10 (mitochondrial ribosomal protein S10)","reagent":5,"siRNA vendor or control pool":"qiagen single siRNA","p65 translocation z-score, replicate mean":1.87}
{"target gene":"Mrps10 (mitochondrial ribosomal protein S10)","reagent":6,"siRNA vendor or control pool":"qiagen single siRNA","p65 translocation z-score, replicate mean":"2.49 (active)"}

A stretch from the list above, as a working copy:
{"target gene":"Cfb (complement factor B)","reagent":6,"siRNA vendor or control pool":"qiagen single siRNA","p65 translocation z-score, replicate mean":"-2.38 (active)"}
{"target gene":"Mrps10 (mitochondrial ribosomal protein S10)","reagent":1,"siRNA vendor or control pool":"ambion single siRNA","p65 translocation z-score, replicate mean":0.45}
{"target gene":"Mrps10 (mitochondrial ribosomal protein S10)","reagent":2,"siRNA vendor or control pool":"ambion single siRNA","p65 translocation z-score, replicate mean":-0.914}
